Assay results reported in the supplement of paper PMC5407854, “Inhibitor of ppGalNAc-T3-mediated O-glycosylation blocks cancer cell invasiveness and lowers FGF23 levels” (eLife, 2017).
The full ranking holds about 1,700 compounds; the median of “T3 sensor activation Q score (MG/GFP ratio z-score vs DMSO controls)” is about 0.25, and the highest 2% start at about 1.9. This is one part of the list.

System: ppGalNAc-T3 sensor
Assay: T3 sensor activation Q score (MG/GFP ratio z-score vs DMSO controls) (SD units); higher = more sensor activation (inhibition of ppGalNAc-T3 glycosylation)
Conditions: HEK293 sensor cells; 10 µM; 6 h
Method: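 Cells were treated with compound at 10 uM for 6 h, then MG/GFP ratio was read by flow cytometry (10,000 cells per well, duplicate wells). Q = (R - R_neg)/SD_neg relative to DMSO vehicle controls; the signal rises when the glycosyltransferase is inhibited.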

Point of comparison: CO[C@@]12[C@H](COC(N)=O)C3=C(C(=O)C(C)=C(N)C3=O)N1C[C@H]1[C@@H]2N1C (some centres not stated), “T3 sensor activation Q score” value 1.1. Against it:
- C[C@H](N)C(=O)N[C@@H]1[C@H]2C(=C(O)C[C@@H](O)[C@@H]2O)C(=O)O[C@]1(C)C(Cl)Cl — lower, -1.45
- CC1(C)CC(=O)CC(C)(C)N1O — lower, -1.9
- CN1C2c3ccccc3C3C4c5ccccc5C(C31)C(C2[N+](=O)[O-])N4C (configuration not stated) — the same, 1.1
- CC(=O)Nc1cc([As](=O)(O)O)ccc1O — higher, 1.4
- CC12CCC3C(CCC4Cc5[nH]c6ccccc6c5CC43C)C1CCC2O (configuration not stated) — lower, 0.6
- CCN1CCc2ccccc2C1 — higher, 1.2
- CCC(C)c1cnc(CC(C)C)c(=O)n1O (configuration not stated) — lower, 0.05
- NCCCNCCSP(=O)(O)O — higher, 1.15
- COC1C(OC(=O)c2ccc(C)[nH]2)C(O)C(Oc2ccc3c(O)c(NC(=O)c4ccc(O)c(CC=C(C)C)c4)c(=O)oc3c2Cl)OC1(C)C (configuration not stated) — lower, -0.95
- CCC(CO)NC(=O)C1C=C2c3cccc4[nH]cc(c34)CC2N(C)C1 (configuration not stated) — higher, 1.8
- COc1ccc(CCNC2(C#N)CCCCC2)cc1OC — lower, 0.2
- Cc1c(CCN)ccc2c1[nH]c1ccccc12 — lower, 0.7
- O=C(CF)N(O)c1ccc(/C=C/c2ccccc2)cc1 — lower, -1.1
- Cc1cc(OCCN2CC2)c2ccccc2n1 — lower, 0
- O=C(NC(=O)c1c(F)cccc1F)Nc1cc(Cl)c(F)c(Cl)c1F — lower, -0.65
- CC(C)NC1C2CCC(CC2)C1(O)c1ccc(Cl)c(Cl)c1 (configuration not stated) — lower, 0.45
- CC(C)(O)C1C2OC(=O)C1C1(O)CC3OC34C(=O)OC2C14C (configuration not stated) — lower, 0.4
- S=C1NC2(CCCCC2)NC12CCCCC2 — lower, 0.55
- CC1CC(C)OP(=O)(OCCC#N)O1 (configuration not stated) — lower, -0.7
- CC(C)CC(NC=O)C(=O)O.COc1cc2c(cc1OC)C13CCN4CC5=CCOC6CC(=O)N2C1C6C5CC43 (configuration not stated) — lower, 0.15
- CN1C(=O)NC(=O)C(N=Nc2ccc(Cl)cc2)C1=O (configuration not stated) — higher, 1.7
- COc1ccc2c(c1)C13CCN(C)C(C2)C1CCC1(C3)OCCO1 (configuration not stated) — lower, 0.55
- N#CC(C#N)=Cc1ccc(C=C(C#N)C#N)cc1 — lower, -0.85
- O=C(NCCCN1CC1)Nc1cccc2ccccc12 — higher, 1.55
- COc1ccc2c(c1O)[C@]13CCN(C)[C@H](C2)[C@@H]1CCC(=O)C3 — lower, -0.4
- C=CCNC(=S)Nc1ccc(OC(=O)Nc2ccc(Cl)c(Cl)c2)cc1 — lower, 0.4
- c1cc(C2N3CCCN2CC3)ccn1 (configuration not stated) — lower, 0.05
- ClC1=C(Cl)C(Cl)=C(Cl)C1=C/C=C/c1ccccc1 — lower, -0.6
- Cc1c2ccncc2c(C)c2c1[nH]c1ccccc12 — lower, 0.15
- CC[C@@]1(O)C(=O)OCc2c1cc1n(c2=O)Cc2cc3c(NC(=O)CN)cccc3nc2-1 — lower, -1.65
- O=P1(NCCCl)OCCCN1CCCl (configuration not stated) — lower, -0.15
- Oc1cccc2nc3ccccc3nc12 — lower, -0.35
- CN1CCC(c2c[nH]c3ccccc23)C1 (configuration not stated) — higher, 1.75
- CCC(N)Cc1c[nH]c2ccccc12 (configuration not stated) — lower, 0.25
- O=C1CCC2(O)[C@@H]3Cc4ccc(O)c5c4[C@]2(CCN3Cc2ccoc2)C1O5 (some centres not stated) — lower, -0.05
- COc1ccccc1[As](=O)(O)CC(O)COc1ccc(Cl)cc1Cl (configuration not stated) — lower, -0.4
- Cc1c(N)nc([C@H](CC(N)=O)NC[C@H](N)C(N)=O)nc1C(=O)N[C@H](C(=O)N[C@H](C)[C@@H](O)[C@H](C)C(=O)N[C@H](C(=O)NCCc1nc(-c2nc(C(=O)NCCC[S+](C)C)cs2)cs1)[C@@H](C)O)[C@@H](OC1OC(CO)C(O)C(O)C1OC1OC(CO)C(O)C(OC(N)=O)C1O)c1cnc[nH]1 (some centres not stated) — lower, -1.6
- CC1=CC(O)C(O)C2(C)C1CC1OC(=O)C(O)C3C(C)C(O)C4(O)OCC13C42 (configuration not stated) — lower, -0.3
- CC(CC(C#N)(c1ccccc1)c1ccccc1)N1CCCCC1 (configuration not stated) — lower, 0.05
- Cc1n[nH]c2c([N+](=O)[O-])c(=O)[nH]c(=O)n12 — higher, 1.2
- O=C(OC1CCCCC1)c1ccccc1C(=O)OC1CCCCC1 — lower, 0.2
- Cc1ccccc1NC(=O)NCCN1CC1 — higher, 1.75
- Cn1cnc([N+](=O)[O-])c1Sc1n[nH]c(N)n1 — lower, 0.05
- CC1(C)NC(=S)C(C)(C)N1N=O — lower, -0.35
- COc1cc(OC)cc(C2(C#N)CCN(C)CC2)c1 — higher, 1.55
- CCc1cc2c(cc1-c1csc(C/C(N)=N/O)n1)C(C)(C)CCC2(C)C — higher, 1.8
- O=C1NC(=O)C(=Cc2ccc3ccccc3c2)C(=O)N1 — lower, 0.95
- O=C1CCCN1CC#CCN1CCCC1 — lower, 1.05
- CC(C)(C)n1cc(C(=O)c2ccccc2)cc1-c1ccccc1 — lower, 0.7
- Cc1ccc2c(c1)Oc1ccccc1N=C2 — lower, -0.25
- O=[As](O)(O)c1ccc(N=Nc2ccc(O)cc2)cc1 — lower, 0.55
- CN1CCN(c2nc(N)c(Br)c(Cl)n2)CC1 — lower, 0.1
- O=c1[nH]cc(N(CCCl)CCCl)c(=O)[nH]1 — lower, 0
- CN1CCc2cc3c(cc2C1)OCO3 — lower, 0.2
- CC[C@@]1(O)C(=O)OCc2c1cc1n(c2=O)Cc2cc3ccccc3nc2-1 — lower, -1.75
- CC1C(C)N1CC(O)Cn1ccnc1[N+](=O)[O-] (configuration not stated) — higher, 1.15
